Measured values from publication PMC5389555.
Results are given in words; binding and its absence hold for the method and conditions named. In cells and extracts the contact can be indirect. Some results given as binding are weak or reduced against the parent protein; the word gives no strength.

Chains of the proteins cited; added tags and fusions are not shown. Lines headed by an entry give the natural chain unless they say otherwise; changes in a name come on top.
UniProt P49841: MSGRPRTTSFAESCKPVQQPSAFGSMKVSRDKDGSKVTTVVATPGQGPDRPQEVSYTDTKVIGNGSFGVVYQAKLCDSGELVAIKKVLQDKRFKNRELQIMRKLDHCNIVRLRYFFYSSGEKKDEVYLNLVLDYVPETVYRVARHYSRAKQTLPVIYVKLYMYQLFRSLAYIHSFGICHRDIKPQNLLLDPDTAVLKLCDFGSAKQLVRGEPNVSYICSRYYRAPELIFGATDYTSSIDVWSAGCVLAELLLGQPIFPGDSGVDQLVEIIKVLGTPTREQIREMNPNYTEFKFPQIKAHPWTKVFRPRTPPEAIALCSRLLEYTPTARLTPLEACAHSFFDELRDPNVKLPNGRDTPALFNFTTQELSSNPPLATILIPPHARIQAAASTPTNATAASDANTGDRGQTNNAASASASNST

What was measured:
[1] = molecular target: HA-GSK3β-K85A,K86A (UniProt P49841); assay: co-IP; HEK293T transfected with HA-GSK3β-WT, -S9A, -K85R or -K85A,K86A; lysates pre-cleared, EZView anti-HA agarose beads, 4°C overnight; blots for p72, DGCR8 and HA
[2] = molecular target: HA-GSK3β (wild-type) (UniProt P49841); assay: as above
[3] = molecular target: Glycogen synthase kinase 3β (GSK3β) (endogenous) (human (endogenous in HEK293T)) (UniProt P49841); assay: co-IP; endogenous GSK3β precipitated from HEK293T lysates (cells ± 2 μM 99021, 48 h) with mouse anti-GSK3β antibody on Protein G Dynabeads, 4°C overnight; mouse IgG control; blots for DGCR8 and p72

- binding [1]: no binding
- binding [2]: binds
- binding [3]: binds
B1: DiGeorge Critical Region 8 (DGCR8) (endogenous) (protein, UniProt Q8WYQ5 1-773)
chain: METDESPSPLPCGPAGEAVMESRARPFQALPREQSPPPPLQTSSGAEVMDVGSGGDGQSELPAEDPFNFYGASLLSKGSFSKGRLLIDPNCSGHSPRTARHAPAVRKFSPDLKLLKDVKISVSFTESCRSKDRKVLYTGAERDVRAECGLLLSPVSGDVHACPFGGSVGDGVGIGGESADKKDEENELDQEKRVEYAVLDELEDFTDNLELDEEGAGGFTAKAIVQRDRVDEEALNFPYEDDFDNDVDALLEEGLCAPKKRRTEEKYGGDSDHPSDGETSVQPMMTKIKTVLKSRGRPPTEPLPDGWIMTFHNSGVPVYLHRESRVVTWSRPYFLGTGSIRKHDPPLSSIPCLHYKKMKDNEEREQSSDLTPSGDVSPVKPLSRSAELEFPLDEPDSMGADPGPPDEKDPLGAEAAPGALGQVKAKVEVCKDESVDLEEFRSYLEKRFDFEQVTVKKFRTWAERRQFNREMKRKQAESERPILPANQKLITLSVQDAPTKKEFVINPNGKSEVCILHEYMQRVLKVRPVYNFFECENPSEPFGASVTIDGVTYGSGTASSKKLAKNKAARATLEILIPDFVKQTSEEKPKDSEELEYFNHISIEDSRVYELTSKAGLLSPYQILHECLKRNHGMGDTSIKFEVVPGKNQKSEYVMACGKHTVRGWCKNKRVGKQLASQKILQLLHPHVKNWGSLLRMYGRESSKMVKQETSDKSVIELQQYAKKNKPNLHILSKLQEEMKRLAEEREETRKKPKMSIVASAQPGGEPLCTVDV
